Earlier results as cited in patent publication US8609666B2, “2-morpholino-pyrido[3,2-D]pyrimidines” (Merck Serono SA, priority 2009, dated 2013).
Like-named read-outs stand apart in the source and are kept apart here.

Test system: Class I PI3-kinases
Details: Fruman et al., 1998, cited from earlier work

SMILES | IC50 (read-out: IC50 against each of the various Class I PI3-kinases) | IC50 (read-out: IC50 against each of the Class I PI3-kinases)
COC[C@H]1OC(=O)c2coc3c2[C@@]1(C)C1=C(C3=O)[C@@H]2CCC(=O)[C@@]2(C)C[C@H]1OC(C)=O [Wortmannin] | 0.001 to 0.01 µM | –
O=c1cc(N2CCOCC2)oc2c(-c3ccccc3)cccc12 [LY294002] | – | 15 to 20 µM
